Experimental data published in PubChem BioAssay AID1458 (National Center for Advancing Translational Sciences (NCATS), 2008).
About 5,900 (2.8%) of roughly 210,000 compounds were called active. Not shown: some 5% with an inconclusive outcome. Calls come from the whole dose curve; as a rule, active = well fitted activation curve with a large enough effect; inconclusive = small, poorly fitted or top-dose-only effect; inactive = no such curve, though single readings can be large or run the other way. Only a part is listed here, and it is no random draw. Where no call is shown, the source filed none.
Potency is the fitted concentration of half-maximal effect.

Experiment: qHTS Assay for Enhancers of SMN2 Splice Variant Expression; note: nearly all actives have a fitted effect of over 55% in size; for activity change, positive = activation: % of control where 0% means no effect
Settings: HEK293 SMN2-luciferase splicing reporter, luminescence, 30-36 h; activity change, positive = activation: at 46.1 µM (top of the series) unless noted
Excerpt: NIH Chemical Genomics Center [NCGC] NIH Molecular Libraries Probe Production centers Network [MLPCN] MLPCN Grant: R03 MH084179-01 Assay Submitter (PI): Elliot Androphy NCGC Assay Overview: Spinal muscular atrophy (SMA) is caused by insufficient levels of the survival motor neuron protein SMN. The SMN locus on chromosome 5q13 contains two inverted copies of SMN called SMN1 and SMN2 which are 99% identical at the amino acid level. SMN1 is a fully functional protein and SMN2 skips exon 7 90% of the time. Skipping of exon 7 produces non-functional protein product. 10% of the SMN2 protein includes exon 7 and is fully functional. In the SMA disease state, mutations in the SMN1 locus are the cause of the disease state. Because only 10% of SMN2 is of the fully functional form, it is not sufficient to overcome the deficiency produced by the loss of the SMN1 product. A therapy that either increase the amount of SMN2 product made or to increase the inclusion of exon 7 has been proposed for the treatment of SMA. We have designed an assay to identify small molecules that can increase the amount of functional SMN2 product by appending a luciferase reporter gene after the native SMN2 gene, such that inclusion of exon 7 in the expressed product places the luciferase sequence in frame, thus generating functional luciferase enzyme.
NCGC Assay Protocol Summary: This screen utilizes a luciferase reporter gene assay, combining the promoter and splicing based cassettes in tandem with the major portion of the native SMN2 cDNA, and then transfected into HEK293 cells. Compounds that increase luciferase signal presumably enhance expression of the functional SMN2 splice variant. Passaging media contained DMEM w/ glutamax (+phenol red) 10% FCS, 1x pen/strep, 200 ug/ml hygro, 1x sodium pyruvate. Assay media contained DMEM w/ glutamax (-phenol red) 10% FCS, 1x pen strep, 1x pyruvate Sequence, Parameter, Value, Description (1) Cells, […], 2000 cells/well, 1536 TC treated White solid bottom plate (2) Time, 10-12 hours, 37C 5% CO2 (3) Compound, 23 nl, MLSMR Library (4) Control Compound, 23 nL, Sodium butyrate st 4.5mM (final) conc (5) Time, 30-36 hours, 37C 5% CO2 (6) Reagent, 3 ul, One Glo (TM) from Promega (7) Time, 5-15 minutes, Room temp (8) Detector, Viewlux: luminescent read, 60 second integration, high speed 2x binning Keywords: Spinal muscular atrophy, SMA, SMN2, high throughput screening, MLSMR, MLPCN, NIH Roadmap, qHTS and NCGC
For `CC1=Nc2cc(C(=O)NCCCOC(C)C)ccc2Sc2ccccc21`, the activity change, positive = activation was -33.4%.
Work on `Cc1cccc(Nc2nnc(SCC(=O)c3ccc(Br)s3)s2)c1C` yielded an activity change, positive = activation of -60.1%.
In the case of `CCOc1cc(C(=O)Nc2ccccc2F)cc(Br)c1OCC`, the “activity change, positive = activation” value is reported as inactive: -11.4%.
For `COc1ccc(-c2cc(C)nc3nc(N)nn23)cc1`, the activity change, positive = activation was 38.2%.
`CC(C)Cn1c(-c2ccccc2)nc(=S)c2c1CCCC2` showed an activity change, positive = activation of 32%.
For `O=C1C=C(NCCN2CCOCC2)C(=O)c2cnccc21`, the “activity change, positive = activation” value was inactive: -101%.
With `O=C(c1cccc(F)c1)N1CCC[C@@]2(CCN(c3ccccc3)C2)C1` the “activity change, positive = activation” value was inactive: -82.8%.
With `CCOC(=O)c1cnc(SCc2ccc(C(C)(C)C)cc2)nc1N` the “activity change, positive = activation” value was inactive: -40.2%.
Work on `Cc1cc(C(C)(C)C)cc(S(=O)(=O)NCCO)c1C` yielded an activity change, positive = activation of 40.4%.
Work on `OC(c1ccc(OCc2ccccc2)cc1)c1nnc(-c2ccccc2)o1` (stereo unspecified) yielded an activity change, positive = activation of -75%.
For `c1ccc(CCNc2ncnc3ccccc23)cc1`, the activity change, positive = activation was 89.4%.
In the case of `CCOC(=O)c1c(NC(=O)c2cc3ccccc3c(=O)o2)sc2c1CCC(C)C2` (stereo unspecified), the activity change, positive = activation is reported as 31.7%.
With `CCOC(=O)c1[nH]c(C)c(C(=O)N(C)C)c1C` the activity change, positive = activation was 34.2%.
In the case of `CC(C)(C)OC(=O)N1CCC(c2nnc(SCc3cccc(Cl)c3)o2)CC1`, the “activity change, positive = activation” value is reported as inactive: -44.6%.
Compound `COC(=O)c1c(C#N)c(N)nc2c1CCC2` has an activity change, positive = activation of 35.8%.
Compound `CCOC(=O)CC(=O)CSc1nc2sc(C)cc2c(=O)n1Cc1ccco1` has an activity change, positive = activation of -35%.
`COC(=O)C1CCN(C(=O)/C=C/c2ccc(OC)cc2)CC1` showed an activity change, positive = activation of 45%.
For `CC(C)(C)OC(=O)N1CCC[C@H]1C(=O)NCC1CCC(C(=O)O)CC1` (stereo partly specified), the “activity change, positive = activation” value was inactive: -28.9%.
In the case of `Cc1ccc(-c2noc(C3CCCN(C(=O)c4c(F)cccc4F)C3)n2)cc1` (stereo unspecified), the “activity change, positive = activation” value is reported as inactive: -35.1%.
In the case of `Cc1ccc(C(=O)CC2(O)C(=O)N(Cc3ccccc3)c3ccccc32)o1` (stereo unspecified), the Potency is reported as active: 11.2 µM.
For `Cc1ccc(S(=O)(=O)Nc2ccncc2)c(C)c1N(C)S(=O)(=O)c1ccc(Cl)cc1`, the activity change, positive = activation was -36.6%.
`CC(C)Oc1ccc(NC(=O)c2ccncc2)cc1` showed an activity change, positive = activation of -41%.
In the case of `Cc1sc2nc(CN(C(=O)NC3CCCCC3)C3CCCC3)[nH]c(=O)c2c1C`, the activity change, positive = activation is reported as -35.9%.
For `CCC(CC)C(=O)Nc1nc(-c2ccc3c(c2)CCN3C(=O)C2CC2)c(C)s1`, the “activity change, positive = activation” value was inactive: -30.3%.
Work on `C=CCn1c(SCC(N)=O)nc(C)cc1=O` yielded an activity change, positive = activation of 24.8%.
With `CCOc1ccc(NC(=O)C2CC(C)=C(C)CC2C(=O)O)cc1` (stereo unspecified) the activity change, positive = activation was 35.8%.
For `COCCn1c(-c2cc(OC)c(OC)c(OC)c2)nc2oc3ccccc3c(=O)c2c1=O`, the Potency was active: 14.1 µM.
`CCOc1ccc(C(=O)CCC(=O)NC(CC(C)C)C(=O)OC)cc1` (stereo unspecified) gave an activity change, positive = activation of 11.9%.
For `COc1cnc(-c2ccccn2)nc1Sc1ccc(C)cc1`, the “activity change, positive = activation” value was inactive: -104%.
Compound `O=C(COc1ccc(S(=O)(=O)NC2CCCC2)cc1)N1CCCCCC1` has an activity change, positive = activation of 36.1%.
Work on `Cc1oc(-c2ccccc2)cc1C(=O)Nc1cccc(C(=O)O)c1` yielded an activity change, positive = activation of 30.9%.
For `CCNc1nc(N)nc(Oc2ccc(OCCOc3ccccc3)nn2)n1`, the activity change, positive = activation was 76.1%.
`CCCCN(C)C(=S)Nc1ccsc1C(=O)OC` showed an activity change, positive = activation of -83.9%.
`COc1cccc(C(=O)N2c3ccccc3Sc3ccccc32)c1` showed an activity change, positive = activation of -45.1%.
`O=C(Cn1cc(SCc2cccc(Cl)c2)c2ccccc21)N1CCOCC1` showed an activity change, positive = activation of 118%.
`Cc1sc2ncnc(N[C@@H](Cc3c[nH]c4ccccc34)C(=O)O)c2c1C` gave an activity change, positive = activation of 17.6%.
In the case of `O=C(Nc1ccc2c(c1)CCC2)c1cnccn1`, the Potency is reported as active: 12.6 µM.
With `N#CC(Sc1ccccn1)c1ccc(Cl)cc1` (stereo unspecified) the activity change, positive = activation was 32.1%.
For `COCCNC(=O)c1noc2c1CCc1cc(OC)ccc1-2`, the Potency was active: 7.94 µM.
Work on `O=C(C1CCC1)N1CCc2cc(S(=O)(=O)NCc3cccnc3)ccc21` yielded an activity change, positive = activation of -45.5%.
With `Cc1cc(/C=C(\C#N)C(=O)NC2CC2)c(C)[nH]1` the Potency was active: 11.2 µM.
For `CCOc1ccc2nc(SC3CC(=O)N(c4ccc(C)cc4)C3=O)sc2c1` (stereo unspecified), the “activity change, positive = activation” value was inactive: -91.6%.
With `COc1cc(O)c2c(=O)c3c(OC)c(O)ccc3oc2c1` the activity change, positive = activation was 92.3%.
With `O=C(Nc1ccc(Cl)c(Cl)c1)Nc1ccc(N2CCCC2)c(S(=O)(=O)Nc2ccccc2Cl)c1` the “activity change, positive = activation” value was inactive: -46%.
Compound `CCn1c(=O)[nH]c2cc(C(=O)N3CCN(c4ccccc4)CC3)ccc2c1=O` has an activity change, positive = activation of 46.6%.
For `CCN(C(=O)c1ccc(C(C)(C)C)cc1)c1nnc(Cn2nnc3ccccc32)s1`, the “activity change, positive = activation” value was inactive: -59%.
`CCC(C(=O)Nc1cc(C)nn1-c1nc(C)cc(C)n1)c1ccccc1` (stereo unspecified) gave an activity change, positive = activation of -69%.
With `Cc1nnc(-c2cnn(C)c2N)n1Cc1cccc(Cl)c1` the activity change, positive = activation was 25.2%.
Compound `CCOC(=O)CNC(=O)CSc1nc(N)cc(N)n1` has an activity change, positive = activation of 38.8%.
`OC(Cn1cncn1)(c1ccccc1)c1ccccc1` showed an activity change, positive = activation of 41.5%.
For `O=C(Nc1ccccc1O)c1cc(S(=O)(=O)N2CCCC2)ccc1Cl`, the “activity change, positive = activation” value was inactive: -31.9%.
With `COc1ccc(/C=N/NC(=O)CO/N=C(\C)c2cccs2)cc1` the “activity change, positive = activation” value was inactive: -35.6%.
Compound `CC(C)(C)c1ccc(CN(Cc2ccccc2)C(c2ccccn2)c2nnnn2C(C)(C)C)cc1` (stereo unspecified) has an activity change, positive = activation of -37.9%.
In the case of `COc1cccc(C(=O)Nc2cnn(C(C)C)c2)c1`, the activity change, positive = activation is reported as 123%.
With `Cc1ccc(/C=N\NC(=O)COc2ccc(C)cc2[N+](=O)[O-])cc1` the “activity change, positive = activation” value was inactive: -9.1%.
For `O=S(=O)(Nc1cc(Sc2ncn[nH]2)c(O)c2ccccc12)c1ccccc1`, the “activity change, positive = activation” value was inactive: -113%.
For `Cc1conc1NC(c1cccs1)c1ccc2cccnc2c1O` (stereo unspecified), the “activity change, positive = activation” value was inactive: -77.5%.
For `O=C(c1cccc(F)c1)N1CCC2(CC1)CCN(c1ncccn1)CC2`, the “activity change, positive = activation” value was inactive: -39.2%.
In the case of `COc1ccc2oc3cc(C)[n+]([O-])c(-c4ccc(Cl)cc4)c3c2c1`, the activity change, positive = activation is reported as -62.5%.
For `O=S(=O)(c1ccc(-c2csc(=Nc3ccc(OC(F)(F)Cl)cc3)n2CCCO)cc1)N1CCCC1`, the “activity change, positive = activation” value was inactive: -103%.
Compound `Cc1ccnc(N2C(=O)OC(C)(C)C2(C)O)c1` (stereo unspecified) has an activity change, positive = activation of 17.3%.
`CCOC(=O)c1c(C)[nH]c(C(=O)COC(=O)CCC2CCCC2)c1C` showed an activity change, positive = activation of 39.7%.
`Cc1c(NC(=O)c2cccnc2C(=O)O)cccc1C(=O)O` showed an activity change, positive = activation of 5.6%.
`O=C(CN(c1ccc(Cl)cc1)S(=O)(=O)c1ccccc1)N/N=C/c1ccco1` gave an activity change, positive = activation of 44.2%.
In the case of `CC(=O)Nc1nc(C)c(-c2csc(Nc3ccccn3)n2)s1`, the Potency is reported as active: 12.6 µM.
In the case of `Cc1ccc(CN2CC(C(=O)Nc3cccc(S(=O)(=O)N4CCCCC4)c3)CC2=O)cc1` (stereo unspecified), the activity change, positive = activation is reported as -47.7%.
For `O=C(COc1ccccc1)NNc1c2ccccc2nc2ccccc12`, the activity change, positive = activation was -71.5%.
For `O=C(NC1=NCCS1)C1COc2ccccc2O1` (stereo unspecified), the activity change, positive = activation was -55.1%.
Work on `CCC(c1nnc(SCC(=O)Nc2cc(Cl)ccc2C#N)n1C1CCCCC1)N(C)C` (stereo unspecified) yielded an activity change, positive = activation of 18.1%.
Compound `O=C(NCC1CCCO1)c1cnn2c1NC(c1ccccc1)CC2C(F)(F)F` (stereo unspecified) has an activity change, positive = activation of 31.2%.
For `COc1ccc(OC)c(NC(=O)CCc2c(C)nc3c(-c4ccccc4)c(C)nn3c2C)c1`, the “activity change, positive = activation” value was inactive: -19.4%.
